In PubChem BioAssay AID540256 (National Center for Advancing Translational Sciences (NCATS), 2011):
Screen size: about 300,000 compounds; about 3,700 (1.2%) were called active. The inconclusive results got no clear call from the source; some entries with a clear call stand among them for comparison. Calls come from the whole dose curve; tested in HEK293 cells. A potency beside an inconclusive call is a rough fit, not a confirmed value.
Potency is the fitted concentration of half-maximal effect.

Assay: qHTS for Inhibitors of binding or entry into cells for Lassa Virus; note: nearly all actives have a fitted effect of over 50% in size
Settings: Lassa virus pseudotype entry inhibition, cell reporter; series mostly up to 37.9 µM
For COC(=O)c1ccccc1NC(=O)CN(c1ccccc1OC)S(C)(=O)=O, the Potency was inconclusive: 0.562 µM [activator, full curve, poor fit]. With COc1ccc(CCC(=O)NNC(=O)Nc2ccccc2Cl)cc1 the Potency was inconclusive: 2.51 µM [inhibitor, full curve, poor fit]. With CC1=NN(c2ccc(Cl)cc2)C(=O)C1C(c1cccc(O)c1)c1c(C)[nH]n(-c2ccc(Cl)cc2)c1=O (configuration not stated) the Potency was inconclusive: 0.501 µM [inhibitor, full curve, poor fit]. For Cn1cc(/C=C2/SC(=O)N(c3ccccc3)C2=O)c2ccccc21, the Potency was “inactive”. With Cc1cc2c(cc1C)NC(CC(=O)NCc1ccccc1)C(=O)N2 (configuration not stated) the Potency was inconclusive: 0.206 µM [activator, full curve, poor fit]. For Cc1cc(N2C(=O)C3C4CCC(C4)C3C2=O)no1 (configuration not stated), the Potency was “inactive”. For CC(=O)Nc1ccc(S(=O)(=O)NN=Cc2ccc(Cl)c(Cl)c2)cc1, the Potency was inconclusive: 3.16 µM [inhibitor, single point]. With Cc1cc(C(=O)CN2C(=O)NC3(CCCCC3)C2=O)c(C)n1Cc1ccco1 the Potency was inconclusive: 7.08 µM [inhibitor, partial curve, poor fit]. In the case of CC1CCN(S(=O)(=O)c2cn(CC(=O)Nc3ccc(F)c(Cl)c3)c(=O)c3ccccc23)CC1, the Potency is reported as inconclusive: 2.24 µM [inhibitor, full curve, poor fit]. In the case of CCN(CC)S(=O)(=O)N1CCC(C(=O)NCc2ccco2)CC1, the Potency is reported as “inactive”. With Cc1ccc(C(=O)c2c(C)oc3c2C(=O)C(=O)c2ccccc2-3)cc1 the Potency was active: 7.08 µM. For Ic1ccc(N2CCN(Cc3c[nH]c4ncccc34)CC2)cc1, the Potency was inconclusive: 10.3 µM [inhibitor, partial curve]. For CCC(C)NC(=O)Cc1c(C)c2cc3c(cc2oc1=O)OC(C)(C)CC3 (configuration not stated), the Potency was inconclusive: 35.5 µM [inhibitor, single point]. With COc1ccc(-n2c(=O)c3ccccc3n(CC(=O)NCCc3ccccc3)c2=O)c(OC)c1 the Potency was “inactive”. With CC(C)Oc1ccc(C(=O)Nc2nc3ccccc3[nH]2)cc1 the Potency was active: 1.12 µM. For CSc1ccc(CCNC(=O)c2cc(-c3ccccc3)c(N3CCOCC3)s2)cc1, the Potency was inconclusive: 4.47 µM [inhibitor, full curve]. With O=C1CN(c2nc(-c3cccs3)nc3sc4c(c23)CCCC4)CCN1 the Potency was inconclusive: 35.5 µM [inhibitor, single point]. With Cc1ccc(NC(=O)CCc2c(C)nc3c(-c4ccccc4)c(C)nn3c2C)c(C)c1 the Potency was inconclusive: 0.891 µM [activator, full curve, poor fit]. For COc1cccc(C2C3=C(N=c4s/c(=C\c5ccc(O)cc5)c(=O)n42)c2ccccc2CC3)c1OC (configuration not stated), the Potency was “inactive”. With COCC(=O)N1CCC(Oc2ccc(C(=O)N(C)Cc3nccs3)cc2)CC1 the Potency was inconclusive: 5.62 µM [activator, single point]. With COc1ccc(Cn2nnnc2CN2CCN(c3ccc(OC)cc3)CC2)cc1 the Potency was inconclusive: 11.2 µM [inhibitor, partial curve, poor fit]. In the case of Nc1nc(NCc2cccs2)nn1-c1ccccc1, the Potency is reported as inconclusive: 6.51 µM [activator, single point]. With Cc1cc(C2=NNC(=NC3CC3)SC2)c(C)n1Cc1ccco1 the Potency was inconclusive: 2 µM [inhibitor, full curve, poor fit]. In the case of CCCCNC(=O)c1nn2cc(Br)cnc2c1Br, the Potency is reported as “inactive”. For COCc1cc(=O)[nH]c(SCCS(=O)(=O)c2ccc(C)cc2)n1, the Potency was “inactive”. For Cc1cc(C)c(CSc2ncnc3nc[nH]c23)c(C)c1, the Potency was inconclusive: 3.55 µM [inhibitor, single point]. For Nc1cc(S(=O)(=O)Nc2ccc(Cl)cc2)ccc1N1CCOCC1, the Potency was inconclusive: 13 µM [inhibitor, partial curve]. In the case of CNc1ccc(Cl)nn1, the Potency is reported as inconclusive: 10 µM [activator, partial curve, poor fit]. For Nc1ncnc2nc(Sc3ccc(Cl)cc3)[nH]c12, the Potency was inconclusive: 7.08 µM [inhibitor, partial curve]. With CCC(=O)Nc1cc(C(C)(C)C)ccc1C(C)=O the Potency was “inactive”. With C=CCNC(=S)N1CCOCC1 the Potency was inconclusive: 25.1 µM [inhibitor, single point]. With COc1ccc(-n2c(-c3ccc(Cl)cc3)c[n+]3c2CCc2ccccc2-3)cc1 the Potency was inconclusive: 35.5 µM [inhibitor, single point]. In the case of COc1ccc(C(=O)Nc2ccccc2C(=O)NC(C)C)cc1OC, the Potency is reported as inconclusive: 6.51 µM [inhibitor, single point]. With CCOc1ccccc1-n1c(CNc2ccc(F)cc2)nnc1SCC(=O)NCc1ccco1 the Potency was “inactive”. For O=C(Nc1nc(N2C(=O)c3ccccc3C2=O)n(-c2ccccc2)n1)c1ccc(F)cc1, the Potency was “inactive”. In the case of CC(/C=C/c1ccc2c(c1)OCO2)=N/NC(=O)COc1ccc(C)cc1, the Potency is reported as inconclusive: 7.08 µM [inhibitor, partial curve, poor fit]. For N#Cc1cccc(NC(=O)CSc2nc3c(cc2C#N)N2CCC3CC2)c1, the Potency was inconclusive: 11.2 µM [inhibitor, single point]. For COCC(C)n1c(SCc2nc3ccccc3c(=O)[nH]2)nc2ccccc2c1=O (configuration not stated), the Potency was inconclusive: 22.4 µM [inhibitor, single point]. With Cc1nn(Cc2ccccc2Cl)c(C)c1NC(=O)CCCn1nc([N+](=O)[O-])c(Cl)c1C the Potency was inconclusive: 1.26 µM [activator, single point]. In the case of CC1CCN(C(=O)Cn2cc(SCc3cccc(F)c3)c3ccccc32)CC1, the Potency is reported as inconclusive: 35.5 µM [inhibitor, single point]. In the case of CCOC(=O)c1c(NC(=O)CS(=O)(=O)c2ccc(C)cc2)sc2c1CCC(C)C2 (configuration not stated), the Potency is reported as “inactive”. In the case of CCc1ccccc1NC(=O)N1CCN(c2nnc(C)c3c(C)n(-c4ccccc4)nc23)CC1, the Potency is reported as “inactive”. In the case of COc1ccccc1OCc1ccc(C(=O)NCC(C)C)o1, the Potency is reported as inconclusive: 11.2 µM [inhibitor, partial curve, poor fit]. With CCC(C)NC(=O)Cn1c(=O)n(CC2CCC(C(=O)NC)CC2)c(=O)c2sccc21 (configuration not stated) the Potency was “inactive”. In the case of COc1ccc(CCn2c(Br)nc3c2c(=O)[nH]c(=O)n3C)cc1, the Potency is reported as inconclusive: 1.83 µM [inhibitor, full curve, poor fit]. With Cc1ccc(OCC(=O)Nc2ccc(S(=O)(=O)Nc3onc(C)c3C)cc2)cc1 the Potency was inconclusive: 4.11 µM [activator, single point]. In the case of O=C(NN=Cc1ccc2c(c1)OCO2)C1CC1, the Potency is reported as inconclusive: 1.58 µM [activator, partial curve, poor fit]. For CC(Oc1ccccc1[N+](=O)[O-])C(=O)N/N=C/c1ccoc1 (configuration not stated), the Potency was inconclusive: 7.08 µM [activator, full curve, poor fit]. With COc1cc2ccccc2cc1C(=O)N1CCN(c2nc3c(C)cc(C)cc3s2)CC1 the Potency was “inactive”. In the case of CCOc1cc(N2CCOCC2)c(OCC)cc1NC(=O)c1cccc(N(C)C)c1, the Potency is reported as inconclusive: 11.2 µM [inhibitor, partial curve, poor fit]. With CC(C)(C)C(=O)Nc1ccccc1N1CCN(C(=O)c2ccc(Cl)cc2)CC1 the Potency was “inactive”. For O=C(/C=C/c1cccs1)c1cc(Cl)ccc1OC(=O)N1CCOCC1, the Potency was inconclusive: 35.5 µM [inhibitor, single point]. In the case of O=C(N/N=C/c1ccc2c(c1)OCO2)c1ccc2c(c1)OCCO2, the Potency is reported as inconclusive: 20.6 µM [inhibitor, single point]. For CC(=O)C(=Nc1ccc(Cl)cc1Cl)NNc1cccc(Cl)c1, the Potency was active: 10 µM. In the case of COc1cc2[nH]c3c(=O)n(CCN4CCCCC4)cnc3c2cc1OC, the Potency is reported as inconclusive: 35.5 µM [activator, single point]. For S=C(NCCSCc1ccc(Cl)c(Cl)c1)Nc1ccccc1, the Potency was inconclusive: 14.6 µM [inhibitor, partial curve, poor fit]. With O=C1Nc2ccc(Br)cc2C1=Nc1cccnc1 the Potency was inconclusive: 22.4 µM [inhibitor, single point]. In the case of CN1C/C(=C/c2cccnc2)C(=O)/C(=C/c2cccnc2)C1, the Potency is reported as inconclusive: 12.6 µM [inhibitor, partial curve, poor fit]. With Cc1ccc(NC(=S)NCCc2cnc[nH]2)cc1C the Potency was “inactive”. In the case of O=C(/C(C=Nc1ccc(Br)cc1)=C(/O)c1ccco1)C(F)(F)F, the Potency is reported as inconclusive: 8.91 µM [inhibitor, partial curve]. For Cc1c(C(=O)O)cc(-c2ccccc2)n1Cc1ccccc1, the Potency was inconclusive: 22.4 µM [activator, single point]. For CC(C)CCNC(=O)c1ccc(C2SCC(=O)N2Cc2ccco2)cc1 (configuration not stated), the Potency was inconclusive: 5.8 µM [inhibitor, full curve]. For CCN(CC)S(=O)(=O)c1cccc(C(=O)N/N=C(\C)c2ccc(O)cc2O)c1, the Potency was inconclusive: 6.31 µM [inhibitor, partial curve, poor fit]. In the case of CCc1ccc(-n2c(SCc3cc(=O)n4cc(Br)ccc4n3)nc3[nH]ncc3c2=O)cc1, the Potency is reported as inconclusive: 5.62 µM [inhibitor, full curve, poor fit]. With NCCCCCc1nnc(SCC(N)=O)o1 the Potency was inconclusive: 0.631 µM [inhibitor, full curve]. In the case of C[C@@H](NCCc1ccc(O)cc1)[C@@H](O)c1ccc(O)cc1, the Potency is reported as inconclusive: 14.6 µM [inhibitor, single point]. In the case of Cc1ccc(CNC(=O)Cc2noc3ccccc23)cc1, the Potency is reported as inconclusive: 12.6 µM [inhibitor, partial curve, poor fit].
